Assay results reported in article PMC3025356, “Mechanism of the Ca^2+-Dependent Interaction between S100A4 and Tail Fragments of Nonmuscle Myosin Heavy Chain IIA” (Journal of Molecular Biology, 2011).

How the values were obtained:
M200 filaments = test: Stopped-flow turbidity, dissociation of M200 filaments on NaCl jump or dilution; format: biochemical, human; settings: 20 μM S100A4, NaCl jump
Protocol: Fig. 9 Dissociation of M200 filaments by S100A4. (a) Initially, M200 was added (i) from a concentrated stock in 0.5 M NaCl to give a final concentration of 5 μM M200 (with respect to the polypeptide chain) in 100 mM NaCl, 10 mM Hepes, and 0.1 mM Ca^2+ at pH 7.5 and 20 °C. A biphasic rise in turbidity was recorded for 200 s (continuous line). Then 10 μM S100A4 (with respect to monomer concentration) was added (ii), followed by 0.2 mM EGTA (iii) and 1 mM Ca^2+ (iv). […] (b) M200 was diluted (i) into 100 mM NaCl to form filaments as in (a), then 5 μM S100A4 was added (ii), causing a 54% drop in turbidity. A further 5 μM S100A4 (iii) caused turbidity to fall to almost zero. (c) Stopped-flow records monitoring the dissociation of 5 μM M200 filaments on jumping [NaCl] from 100 mM to 120 mM NaCl. Other components of the buffer were 20 mM Hepes, 1 mM Mg^2+, and 100 μM Ca^2+ at pH 7.5 and 20 °C. […] In the presence of 20 μM S100A4 (lower trace), the turbidity decreased by 87% with a rate constant of 0.2 s^− 1.
It is of interest to know whether S100A4 drives depolymerisation solely by binding to free M monomer and allowing the polymer equilibrium to readjust (i.e., via k− 4 and k5), or whether S100A4 also binds to the filament bundle and actively depolymerises an M200 unit (via k6 and k− 7). […]

[1] = Isothermal titration calorimetry of Ca^2+ binding to S100A4 constructs; settings: for cooperativity of Ca^2+ binding: 10 °C
Protocol: Fig. 2 ITC records for Ca^2+ binding to S100A4 constructs: (a) 75 μM wild type at 30 °C; (b) 75 μM wild type at 10 °C; (c) 75 μM E33Q construct at 30 °C; (d) 300 μM D63N construct at 30 °C. For mutant constructs data at 10 °C, see Fig. S1. All preparations were dialysed against the same buffer of 20 mM NaCl, 10 mM Hepes, and 2 mM DTT (pH 7.5).
ITC data were collected using a VP-ITC microcalorimeter (MicroCal Ltd., Northampton, MA) and analysed by fitting to a single-site binding equation or a two-site binding equation using MicroCal Origin software.

Substance | amplitude, biphasic fit (M200 filaments) [%] | cooperativity of Ca^2+ binding [1] | second Ca^2+ site detection ([1]; 20 °C, standard buffer) | S100A4 with prebound Ca^2+ ([1]; titration against EGTA)
S100A4: recombinant S100A4 expressed in E. coli BL21(DE3) | 85 | 1.6 ± 0.4 (cooperative) | the second site was not evident | about 20%
E33Q: S100A4 mutant compromised in the EF1 Ca^2+ binding loop |  | ∼ 1 cooperative |  | 
